This is one part of the list.
What was measured:
Experiment in all cases: log2 fold change, soluble protein after heating vs DMSO (PISA); higher = thermal stabilisation; K562 lysate, 10 uM; active = over 0.2 and 3.5 SD of the protein, either way, in both replicates (recomputed)
[1] = compound: NCC(=O)Nc1ccc(-n2nc(C(F)(F)F)cc2-c2ccc3c(ccc4ccccc43)c2)cc1
In short: (§1)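 Quantification was by TMTpro 16plex LC-MS/MS with equalised channel sums, applied to the supernatant after 21,000xg for 90 min. Samples were crude K562 extract at 1 mg/mL protein in PBS pH 7.4 with 1 mM MgCl2, treated with 10 μM compound for 30 min, heated for 3 min across 48°C-58°C, pooled and brought to 0.5% NP-40 at 4°C. Values are log-two fold changes in thermal stability relative to solvent controls, from duplicates.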

Protein sequences, listed by entry. Tags and fused reporters are not part of them. Lines headed by an entry give the natural chain unless they say otherwise; changes in a name come on top.
UniProt Q9NWY4: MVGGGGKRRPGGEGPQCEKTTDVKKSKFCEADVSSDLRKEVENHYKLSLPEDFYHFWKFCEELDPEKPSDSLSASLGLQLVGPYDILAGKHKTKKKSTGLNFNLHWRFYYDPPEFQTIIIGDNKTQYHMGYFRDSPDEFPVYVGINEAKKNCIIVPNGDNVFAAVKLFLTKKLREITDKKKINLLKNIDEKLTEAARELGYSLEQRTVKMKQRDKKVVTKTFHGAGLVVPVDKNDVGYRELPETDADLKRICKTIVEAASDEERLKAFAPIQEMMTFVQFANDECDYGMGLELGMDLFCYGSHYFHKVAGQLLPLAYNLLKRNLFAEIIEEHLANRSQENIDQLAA
UniProt O15347: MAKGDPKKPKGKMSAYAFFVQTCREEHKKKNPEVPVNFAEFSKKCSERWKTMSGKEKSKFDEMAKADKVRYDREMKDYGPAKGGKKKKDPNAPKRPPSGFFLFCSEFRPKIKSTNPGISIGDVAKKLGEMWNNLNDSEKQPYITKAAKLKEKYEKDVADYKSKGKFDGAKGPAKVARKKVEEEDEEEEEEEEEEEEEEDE
UniProt P17482: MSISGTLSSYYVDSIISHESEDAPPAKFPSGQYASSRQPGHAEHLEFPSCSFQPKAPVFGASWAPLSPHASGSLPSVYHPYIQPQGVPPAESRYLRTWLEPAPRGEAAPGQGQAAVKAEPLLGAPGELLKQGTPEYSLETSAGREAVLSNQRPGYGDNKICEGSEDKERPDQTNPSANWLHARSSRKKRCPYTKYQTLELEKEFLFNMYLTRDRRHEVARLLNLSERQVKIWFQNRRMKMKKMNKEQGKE
UniProt Q53GQ0: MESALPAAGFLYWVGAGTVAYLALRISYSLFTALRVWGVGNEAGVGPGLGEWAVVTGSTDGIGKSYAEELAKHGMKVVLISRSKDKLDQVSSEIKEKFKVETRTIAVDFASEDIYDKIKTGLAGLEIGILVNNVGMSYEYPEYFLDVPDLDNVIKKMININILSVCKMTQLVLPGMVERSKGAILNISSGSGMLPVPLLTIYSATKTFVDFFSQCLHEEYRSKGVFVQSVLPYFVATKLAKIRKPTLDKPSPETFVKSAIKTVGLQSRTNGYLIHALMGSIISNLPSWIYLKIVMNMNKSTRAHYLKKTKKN
UniProt Q8NG08: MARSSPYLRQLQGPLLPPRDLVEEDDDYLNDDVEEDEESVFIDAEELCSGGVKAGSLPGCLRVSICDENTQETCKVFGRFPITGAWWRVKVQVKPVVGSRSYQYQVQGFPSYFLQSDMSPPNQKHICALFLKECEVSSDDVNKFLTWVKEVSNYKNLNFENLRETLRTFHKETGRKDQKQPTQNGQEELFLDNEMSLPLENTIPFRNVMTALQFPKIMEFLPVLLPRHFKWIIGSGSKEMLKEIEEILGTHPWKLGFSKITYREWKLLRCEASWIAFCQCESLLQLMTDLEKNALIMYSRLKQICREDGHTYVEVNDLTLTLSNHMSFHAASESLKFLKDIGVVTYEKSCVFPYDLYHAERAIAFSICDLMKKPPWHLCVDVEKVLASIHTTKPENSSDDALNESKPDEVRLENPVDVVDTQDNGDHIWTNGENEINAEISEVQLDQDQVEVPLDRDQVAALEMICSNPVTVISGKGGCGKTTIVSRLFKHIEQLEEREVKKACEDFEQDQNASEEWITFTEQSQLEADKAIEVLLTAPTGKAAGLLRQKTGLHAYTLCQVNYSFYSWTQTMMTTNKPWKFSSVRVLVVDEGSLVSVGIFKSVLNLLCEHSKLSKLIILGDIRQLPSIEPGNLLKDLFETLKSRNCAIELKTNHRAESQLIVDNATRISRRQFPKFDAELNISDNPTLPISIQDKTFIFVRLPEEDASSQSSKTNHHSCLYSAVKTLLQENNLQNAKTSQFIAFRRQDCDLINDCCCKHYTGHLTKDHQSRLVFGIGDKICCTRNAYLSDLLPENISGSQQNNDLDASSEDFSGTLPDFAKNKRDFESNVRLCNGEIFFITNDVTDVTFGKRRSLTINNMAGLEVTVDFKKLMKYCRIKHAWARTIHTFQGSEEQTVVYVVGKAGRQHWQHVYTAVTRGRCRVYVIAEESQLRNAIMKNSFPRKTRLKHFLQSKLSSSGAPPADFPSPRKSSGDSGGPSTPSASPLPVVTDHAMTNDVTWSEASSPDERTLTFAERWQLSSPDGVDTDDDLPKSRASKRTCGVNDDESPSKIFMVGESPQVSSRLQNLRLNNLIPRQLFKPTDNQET
UniProt Q9BW71: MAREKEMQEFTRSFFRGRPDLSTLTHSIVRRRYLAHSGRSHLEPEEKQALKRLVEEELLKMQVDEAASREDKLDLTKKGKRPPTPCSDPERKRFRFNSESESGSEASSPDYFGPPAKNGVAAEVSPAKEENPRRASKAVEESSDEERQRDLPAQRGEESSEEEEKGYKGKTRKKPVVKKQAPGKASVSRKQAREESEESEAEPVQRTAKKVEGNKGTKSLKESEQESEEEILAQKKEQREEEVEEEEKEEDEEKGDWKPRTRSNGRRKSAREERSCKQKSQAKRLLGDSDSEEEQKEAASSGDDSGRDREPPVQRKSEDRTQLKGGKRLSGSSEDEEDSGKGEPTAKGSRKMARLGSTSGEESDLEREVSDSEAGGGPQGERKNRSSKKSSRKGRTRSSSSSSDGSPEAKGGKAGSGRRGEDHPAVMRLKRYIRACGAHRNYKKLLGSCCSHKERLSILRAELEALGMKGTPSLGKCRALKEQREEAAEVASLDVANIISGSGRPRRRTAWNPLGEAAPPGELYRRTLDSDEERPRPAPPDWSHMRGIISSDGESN
UniProt Q6NT76: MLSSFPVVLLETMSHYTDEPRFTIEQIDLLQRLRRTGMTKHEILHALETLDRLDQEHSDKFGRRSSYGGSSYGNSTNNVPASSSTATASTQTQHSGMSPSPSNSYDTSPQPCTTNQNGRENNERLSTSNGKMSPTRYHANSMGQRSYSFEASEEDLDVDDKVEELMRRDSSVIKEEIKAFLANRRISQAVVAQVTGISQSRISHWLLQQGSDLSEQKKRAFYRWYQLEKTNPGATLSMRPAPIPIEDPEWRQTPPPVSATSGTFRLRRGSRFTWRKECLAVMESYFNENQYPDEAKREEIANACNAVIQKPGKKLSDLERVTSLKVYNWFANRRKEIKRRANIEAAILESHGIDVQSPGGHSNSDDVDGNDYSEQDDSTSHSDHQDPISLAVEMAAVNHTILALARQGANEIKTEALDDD
UniProt Q03014: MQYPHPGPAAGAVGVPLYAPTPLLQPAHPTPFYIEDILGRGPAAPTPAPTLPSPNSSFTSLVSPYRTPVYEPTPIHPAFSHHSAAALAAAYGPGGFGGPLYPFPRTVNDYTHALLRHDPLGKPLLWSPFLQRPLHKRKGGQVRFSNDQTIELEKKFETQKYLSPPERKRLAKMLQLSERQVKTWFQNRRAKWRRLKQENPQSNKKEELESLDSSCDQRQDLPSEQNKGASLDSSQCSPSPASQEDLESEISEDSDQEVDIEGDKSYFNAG
UniProt P52597: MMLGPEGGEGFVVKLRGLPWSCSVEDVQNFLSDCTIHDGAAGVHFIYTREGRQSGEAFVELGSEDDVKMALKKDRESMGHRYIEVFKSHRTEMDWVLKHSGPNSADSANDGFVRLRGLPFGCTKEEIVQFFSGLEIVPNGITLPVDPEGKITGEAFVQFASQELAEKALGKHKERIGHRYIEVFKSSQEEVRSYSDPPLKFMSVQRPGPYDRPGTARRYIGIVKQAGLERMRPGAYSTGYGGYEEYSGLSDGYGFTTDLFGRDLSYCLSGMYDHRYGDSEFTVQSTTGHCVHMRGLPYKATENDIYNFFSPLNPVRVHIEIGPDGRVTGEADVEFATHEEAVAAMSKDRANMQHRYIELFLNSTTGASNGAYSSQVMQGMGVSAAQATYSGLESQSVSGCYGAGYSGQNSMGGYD
UniProt P07910: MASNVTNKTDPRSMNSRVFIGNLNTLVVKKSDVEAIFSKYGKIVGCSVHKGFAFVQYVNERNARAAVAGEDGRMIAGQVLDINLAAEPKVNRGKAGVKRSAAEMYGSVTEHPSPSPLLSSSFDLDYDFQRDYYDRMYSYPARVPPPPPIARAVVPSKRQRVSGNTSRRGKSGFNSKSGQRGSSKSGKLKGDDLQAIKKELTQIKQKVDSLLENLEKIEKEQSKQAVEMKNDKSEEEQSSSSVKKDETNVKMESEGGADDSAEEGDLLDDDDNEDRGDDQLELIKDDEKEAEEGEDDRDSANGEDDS
UniProt P17096: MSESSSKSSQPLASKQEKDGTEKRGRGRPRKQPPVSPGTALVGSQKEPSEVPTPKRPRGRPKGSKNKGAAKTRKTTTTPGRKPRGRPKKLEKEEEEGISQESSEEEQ
UniProt Q96FZ2: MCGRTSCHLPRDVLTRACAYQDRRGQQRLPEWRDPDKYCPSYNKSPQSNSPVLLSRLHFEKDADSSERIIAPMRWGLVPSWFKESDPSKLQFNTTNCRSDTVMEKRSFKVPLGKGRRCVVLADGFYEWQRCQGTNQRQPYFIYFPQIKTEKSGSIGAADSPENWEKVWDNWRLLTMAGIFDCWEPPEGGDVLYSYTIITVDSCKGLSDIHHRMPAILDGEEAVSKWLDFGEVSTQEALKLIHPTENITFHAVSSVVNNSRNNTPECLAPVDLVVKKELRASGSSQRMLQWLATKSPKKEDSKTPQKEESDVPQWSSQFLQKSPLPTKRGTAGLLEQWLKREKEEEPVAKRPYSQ
UniProt P26583: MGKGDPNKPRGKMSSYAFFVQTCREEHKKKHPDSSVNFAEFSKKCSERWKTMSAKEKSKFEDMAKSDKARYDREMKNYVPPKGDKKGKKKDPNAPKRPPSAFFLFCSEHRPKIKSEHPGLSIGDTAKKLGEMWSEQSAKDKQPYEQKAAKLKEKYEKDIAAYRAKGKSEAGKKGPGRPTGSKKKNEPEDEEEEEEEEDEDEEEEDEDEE
UniProt Q9NQG7: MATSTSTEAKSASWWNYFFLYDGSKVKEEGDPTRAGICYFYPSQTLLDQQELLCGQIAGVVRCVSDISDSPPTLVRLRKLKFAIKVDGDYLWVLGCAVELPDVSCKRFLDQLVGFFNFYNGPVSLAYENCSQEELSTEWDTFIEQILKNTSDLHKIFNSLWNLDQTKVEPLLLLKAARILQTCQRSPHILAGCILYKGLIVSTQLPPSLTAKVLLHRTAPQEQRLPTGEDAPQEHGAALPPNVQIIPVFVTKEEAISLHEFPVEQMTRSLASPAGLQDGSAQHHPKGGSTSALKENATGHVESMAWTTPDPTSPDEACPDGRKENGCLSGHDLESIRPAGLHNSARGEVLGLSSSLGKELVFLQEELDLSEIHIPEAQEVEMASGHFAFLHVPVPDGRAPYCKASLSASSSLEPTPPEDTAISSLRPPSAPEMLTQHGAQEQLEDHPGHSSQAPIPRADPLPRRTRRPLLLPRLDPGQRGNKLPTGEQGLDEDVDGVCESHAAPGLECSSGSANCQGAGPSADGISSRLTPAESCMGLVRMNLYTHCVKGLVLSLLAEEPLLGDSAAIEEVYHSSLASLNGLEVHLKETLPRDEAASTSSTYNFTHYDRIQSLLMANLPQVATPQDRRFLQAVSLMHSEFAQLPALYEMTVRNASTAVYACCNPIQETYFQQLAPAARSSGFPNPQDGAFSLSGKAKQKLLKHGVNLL
UniProt O00291: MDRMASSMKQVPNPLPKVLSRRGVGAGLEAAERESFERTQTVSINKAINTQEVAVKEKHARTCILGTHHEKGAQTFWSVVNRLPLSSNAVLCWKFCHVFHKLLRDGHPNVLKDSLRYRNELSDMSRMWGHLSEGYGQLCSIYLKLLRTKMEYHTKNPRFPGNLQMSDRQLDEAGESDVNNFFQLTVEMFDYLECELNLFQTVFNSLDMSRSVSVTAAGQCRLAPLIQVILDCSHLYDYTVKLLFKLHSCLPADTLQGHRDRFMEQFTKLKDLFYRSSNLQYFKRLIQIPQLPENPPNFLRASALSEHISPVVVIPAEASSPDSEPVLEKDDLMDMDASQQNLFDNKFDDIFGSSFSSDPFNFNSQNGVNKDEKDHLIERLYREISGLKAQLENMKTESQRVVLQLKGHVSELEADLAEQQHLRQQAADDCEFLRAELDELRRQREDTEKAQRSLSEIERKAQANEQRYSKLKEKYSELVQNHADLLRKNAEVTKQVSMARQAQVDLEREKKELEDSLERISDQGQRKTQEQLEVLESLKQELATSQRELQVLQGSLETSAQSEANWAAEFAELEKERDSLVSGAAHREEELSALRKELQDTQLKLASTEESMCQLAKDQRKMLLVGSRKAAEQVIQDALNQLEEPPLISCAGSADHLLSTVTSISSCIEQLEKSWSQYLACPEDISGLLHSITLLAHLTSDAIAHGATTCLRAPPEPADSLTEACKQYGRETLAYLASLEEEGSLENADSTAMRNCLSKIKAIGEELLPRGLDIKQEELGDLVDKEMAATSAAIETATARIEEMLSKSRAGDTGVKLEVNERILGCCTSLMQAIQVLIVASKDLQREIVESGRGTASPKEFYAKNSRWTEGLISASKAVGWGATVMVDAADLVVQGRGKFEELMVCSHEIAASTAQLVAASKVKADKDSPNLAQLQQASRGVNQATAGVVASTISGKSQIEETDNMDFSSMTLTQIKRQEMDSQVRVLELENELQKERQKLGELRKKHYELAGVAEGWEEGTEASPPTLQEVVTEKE

[2] = compound: O=C(CCCCCCC(=O)Nc1ccccc1)NO [vorinostat]
In short: as §1

[3] = compound: O=C(O)c1ccc2c(c1)nc(Nc1cccc(Cl)c1)c1ccncc12 [silmitasertib]
In short: as §1

[4] = compound: O=C1NC(=O)C(c2cnc3ccccn23)=C1c1cn2c3c(cc(F)cc13)CN(C(=O)N1CCCCC1)CC2
In short: as §1

[5] = compound: c1cn2cc(-c3ccc4cn[nH]c4c3)nc(Nc3ccc(N4CCOCC4)cc3)c2n1 [entospletinib]
In short: as §1

Measured: log2 fold change

HPF1 (UniProt Q9NWY4)
inactive: [1] -0.02 | [2] -0.145 | [3] 0.019 | [4] 0.019 | [5] -0.003

HELZ2 (UniProt Q9BYK8)
inactive: [1] -0.115 | [2] 0.01 | [3] 0.025 | [4] 0.055

HEPH isoform 3 (UniProt Q9BQS7)
inactive: [1] -0.005 | [2] 0.077 | [3] 0.025 | [4] -0.002 | [5] -0.069

HNRNPM (UniProt M0R019)
inactive: [1] -0.198

HNRNPH1 (UniProt P31943)
inactive: [1] -0.007 | [2] -0.172 | [3] 0.016 | [4] -0.044 | [5] 0.056

HSPA14 (UniProt Q0VDF9)
active: [2] -0.226
inactive: [1] -0.022 | [3] 0.035 | [4] -0.007 | [5] -0.009

HNRNPR (UniProt O43390)
inactive: [1] -0.079 | [2] 0.118 | [3] 0.026 | [4] 0.005 | [5] -0.028

HMG20A (UniProt Q9NP66)
inactive: [1] 0.023 | [2] 0.084 | [3] -0.04 | [4] -0.135 | [5] -0.189

HMGB3 (UniProt O15347)
inactive: [1] -0.03 | [2] 0.127 | [3] -0.007 | [4] -0.004 | [5] -0.032

HOXB9 (UniProt P17482)
inactive: [1] -0.087 | [2] -0.251 | [3] -0.136 | [4] -0.261 | [5] -0.019

HSPA4 (UniProt P34932)
inactive: [1] 0.002 | [2] 0.009 | [3] 0.003 | [4] -0.019 | [5] 0.002

Looked up one by one from the list above (3):
HSPA4 (UniProt P34932)
inactive: [1] 0.002 | [2] 0.009 | [3] 0.003 | [4] -0.019 | [5] 0.002

HMGB3 (UniProt O15347)
inactive: [1] -0.03 | [2] 0.127 | [3] -0.007 | [4] -0.004 | [5] -0.032

HSPA14 (UniProt Q0VDF9)
active: [2] -0.226
inactive: [1] -0.022 | [3] 0.035 | [4] -0.007 | [5] -0.009

Later entries

HNRNPR isoform 2 (UniProt O43390)
inactive: [1] -0.021 | [2] -0.123 | [3] 0.044 | [4] -0.023 | [5] 0

HMGN4 (UniProt O00479)
inactive: [1] -0.095 | [2] 0.192 | [3] -0.012 | [4] 0.067 | [5] 0.163

HPS5 (UniProt Q9UPZ3)
inactive: [1] -0.049 | [2] 0.069 | [3] 0.043 | [4] 0.042

HMGN2 (UniProt P05204)
inactive: [1] -0.025 | [2] 0.139 | [3] 0.017 | [4] 0.062 | [5] 0.047

HNRNPDL (UniProt O14979)
inactive: [1] -0.032 | [2] 0.133 | [3] -0.01 | [4] 0.01 | [5] 0.01

HJURP (UniProt Q8NCD3)
inactive: [1] 0.105 | [2] -0.244 | [3] -0.017 | [4] 0.003

HPCAL1 (UniProt P37235)
inactive: [1] -0.033 | [2] 0.058 | [3] -0.007 | [4] -0.025 | [5] -0.03

HSD17B12 (UniProt Q53GQ0)
inactive: [1] 0.025 | [2] -0.009 | [3] -0.05 | [4] -0.078 | [5] 0.041

HEBP2 (UniProt Q9Y5Z4)
inactive: [1] 0.005 | [2] 0.15 | [3] -0.011 | [4] -0.018 | [5] 0.015

HSPA2 (UniProt P54652)
inactive: [1] 0.044 | [2] -0.009 | [3] 0.03 | [4] -0.01 | [5] -0.017

HOOK3 (UniProt Q86VS8)
inactive: [1] 0.038 | [2] -0.079 | [3] 0.012 | [4] -0.048 | [5] 0.025

HNRNPA0 (UniProt Q13151)
inactive: [1] 0.056 | [2] -0.211 | [3] -0.088 | [4] 0.044 | [5] -0.047

HNRNPUL2 (UniProt Q1KMD3)
inactive: [1] 0.029 | [2] -0.017 | [3] 0.022 | [4] -0.023 | [5] -0.032

HMGCL (UniProt P35914)
active: [2] -0.226
inactive: [1] -0.025 | [3] 0.059 | [4] 0.033 | [5] 0

HIST2H3A (UniProt Q71DI3)
inactive: [1] -0.007 | [2] 0.035 | [3] -0.013 | [4] 0.031 | [5] -0.02

HELB (UniProt Q8NG08)
inactive: [1] -0.023 | [2] -0.103 | [3] 0.036 | [4] 0.005 | [5] 0.022

HNRNPK isoform 2 (UniProt P61978)
inactive: [1] 0.012 | [2] -0.156 | [3] 0 | [4] -0.02 | [5] 0.023

HNRNPA1 (UniProt P09651)
inactive: [1] 0.038 | [2] 0.143 | [3] 0.001 | [4] 0.011 | [5] -0.036

HIRIP3 (UniProt Q9BW71)
inactive: [1] -0.012 | [2] 0.084 | [3] -0.05 | [4] 0.039 | [5] 0.001

HMCN1 (UniProt Q96RW7)
inactive: [1] -0.015

HMBOX1 isoform 5 (UniProt Q6NT76)
inactive: [1] 0.004 | [2] 0.093 | [3] 0.025 | [4] 0.02 | [5] -0.063

HSP90AA4P (UniProt Q58FG1)
inactive: [1] 0.026 | [2] 0.047 | [3] -0.087 | [4] -0.047 | [5] 0.017

HHEX (UniProt Q03014)
inactive: [1] -0.001 | [2] 0.106 | [3] -0.021 | [4] -0.113 | [5] -0.072

HSPA5 (UniProt P11021)
inactive: [1] -0.034 | [2] 0.084 | [3] 0.012 | [4] -0.061 | [5] -0.003

HEMGN (UniProt Q9BXL5)
inactive: [1] -0.003 | [2] 0.082 | [3] -0.032 | [4] 0.008 | [5] 0.016

HEXA (UniProt P06865)
inactive: [1] 0.017 | [2] 0.122 | [3] -0.017 | [4] -0.044 | [5] 0.011

HS2ST1 (UniProt Q7LGA3)
inactive: [1] -0.066 | [2] 0.144 | [3] 0.004 | [4] -0.028 | [5] 0.023

HK2 (UniProt P52789)
active: [2] -0.443
inactive: [1] -0.018 | [3] 0.038 | [4] 0.007 | [5] 0.022

HNRNPF (UniProt P52597)
inactive: [1] 0.002 | [2] -0.094 | [3] 0.002 | [4] -0.024 | [5] 0.004

HNRNPC (UniProt P07910)
inactive: [1] 0.063 | [2] 0.124 | [3] 0.025 | [4] 0.01 | [5] -0.003

HSD17B8 (UniProt Q92506)
inactive: [1] -0.071 | [2] 0.053 | [3] 0.012 | [4] -0.019 | [5] -0.027

HSP90AA1 isoform 2 (UniProt P07900)
inactive: [1] -0.008 | [2] 0.13 | [3] -0.005 | [4] -0.008 | [5] -0.006

HMGA1 (UniProt P17096)
inactive: [1] 0.056 | [2] 0.111 | [3] 0.001 | [4] 0.038 | [5] -0.011

HMCES (UniProt Q96FZ2)
inactive: [1] -0.016 | [2] -0.154 | [3] -0.039 | [4] 0.001 | [5] 0.025

HNRNPD isoform 2 (UniProt Q14103)
inactive: [1] 0.018 | [2] 0.155 | [3] 0.009 | [4] 0.063 | [5] -0.006

HNRNPLL (UniProt Q8WVV9)
inactive: [1] 0.009 | [3] 0.035 | [4] 0.004 | [5] 0.034
active: [2] -0.653

HMGB2 (UniProt P26583)
inactive: [1] 0.004 | [2] 0.122 | [3] -0.052 | [4] 0.047 | [5] 0.003

HPS4 isoform 4 (UniProt Q9NQG7)
inactive: [1] 0.029 | [2] -0.167 | [3] 0.038 | [4] 0.045 | [5] 0.039

HECTD4 (UniProt J3KPF0)
active: [2] -0.472
inactive: [1] 0.051 | [3] -0.003 | [4] 0.032 | [5] 0.001

HNRNPA3 (UniProt P51991)
inactive: [1] -0.044 | [2] 0.026 | [3] 0.02 | [4] 0.023 | [5] 0.039

HP1BP3 (UniProt Q5SSJ5)
inactive: [1] 0.019 | [2] 0.143 | [3] 0.009 | [4] 0 | [5] -0.027

HELZ (UniProt P42694)
inactive: [1] 0.04 | [2] -0.123 | [3] 0.017 | [4] 0.03 | [5] -0.009

HIP1 (UniProt O00291)
inactive: [1] 0.064 | [2] -0.004 | [3] 0.003 | [4] -0.036 | [5] -0.036
